The values below come from PubChem BioAssay AID662 (National Center for Advancing Translational Sciences (NCATS), 2007).

Values joined by “and” are separate entries in the source; they are usually repeats but may differ in a detail not shown here. Equal values may be shown once. The list shows a part of the results. These are further read-outs of the screen, such as a control signal, another cell line or another target. No call is given for them. Compounds called inactive in the main read-out are mostly missing here. Words in brackets tell the shape of the fitted curve; partial curves, single points and poor fits give uncertain potencies.

This assay can be described thus: Cell signaling CRE-BLA (Fsk stim). Particulars: CHO CRE-bla reporter (cAMP response element driving beta-lactamase), forskolin EC10, beta-lactamase ratio; measured here: 460 nm blue channel. In a few lines: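 Titrated compounds plus EC10 NKH 477 on CHO CRE-bla cells, 3 h, 37 °C. CCF4, 2 h RT. Ratio 460/530 nm → AC50.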
A word on the AC50: it is the midpoint of the concentration-response curve, whichever way the signal moves. As to `CCOCCc1nnc(NC(=O)c2cccs2)s1`, the AC50 was 0.0126 µM [rising, single point].
Take `Cc1cc(C(=O)CSc2nc3ccccc3c(=O)[nH]2)c(C)n1C`: the AC50 was 10 µM [rising, partial curve].
In the case of `COC(=O)c1cccc(NC(=O)c2nn(C(C)C)c(=O)c3ccccc23)c1` it was 2.51 µM [rising, full curve]; in that of `CC(C)c1cc(C(F)(F)F)n2nc(C(=O)Nc3ccc4c(c3)OCO4)cc2n1`, 20 µM [rising, single point]; in that of `Cc1nc2sc(C(=O)O)c(N)c2c2c1COC(C)(C)C2`, 20 µM [rising, single point].
The result for `CCOC(=O)N1CCC(NC(=O)Cn2ncc3ccccc32)CC1` reads 0.00316 µM [falling, full curve, poor fit]; that for `Cn1c(=O)c2c(nc(CN3CCN(c4ccccc4F)CC3)n2CCN2CCOCC2)n(C)c1=O`, 0.0398 µM [falling, full curve, poor fit].
Take `Cc1ccc(-c2nn(C)c(=O)c3ccccc23)cc1S(=O)(=O)NCCN1CCOCC1`: the AC50 is 3.16 µM [rising, partial curve].
The result for `COC(=O)c1ccc(CNC(=O)COc2ccccc2Br)o1` reads 0.631 µM [rising, full curve, poor fit]; that for `CCOC(=O)c1ccccc1NC(=O)c1ccccc1NS(C)(=O)=O`, 10 µM [rising, single point].
The result for `Cc1ccc(Cl)cc1N1CCN(C(=O)c2ccc(NS(=O)(=O)c3c(C)noc3C)cc2)CC1` reads 2.51 µM [rising, full curve]; that for `COc1cccc(Cn2c(=O)c(-c3ccc(Cl)cc3)nc3cnc(N4CCN(C)CC4)nc32)c1`, 3.98 µM [rising, full curve].
In the case of `CCCCCCCCCCCCCCCC(=O)O[C@H](CC(=O)O)C[N+](C)(C)C` it was 20 µM [falling, partial curve, poor fit].
Consider `COc1cccc(Nc2ncc3nc(-c4cccs4)c(=O)n(Cc4cccs4)c3n2)c1`, for which the AC50 is 2.51 µM [rising, full curve].
As for `CCC(Sc1nncn1C)C(=O)Nc1nnc(-c2ccccc2Cl)s1` (stereo not given), the AC50 is 12.6 µM [rising, partial curve].
In the case of `COc1cccc(C(=O)Nc2ncc3c(n2)CC(c2ccc(OC)cc2OC)CC3=O)c1` (stereo not given) it was 10 µM [rising, partial curve]; in that of `Cn1ccc(C(=O)OCC(=O)c2ccccc2)n1`, 0.00316 µM [falling, full curve, poor fit]; in that of `COC(=O)c1nc(NC(=O)C(C)(C)C)n[nH]1`, 12.6 µM [falling, partial curve].
The result for `COc1cccc(-n2nnnc2SCC(=O)Nc2cccc(NC(C)=O)c2)c1` reads 0.00794 µM [falling, full curve, poor fit]; that for `c1ccc(-n2ncc3c(NCc4ccccn4)ncnc32)cc1`, 12.6 µM [rising, single point]; that for `CCCCCCCCCCCCCCCC(=O)NC[C@@H](COP(=O)([O-])OCC[N+](C)(C)C)OCC`, 15.8 µM [falling, partial curve, poor fit].
In the case of `COc1cccc(C2=NOC(C(=O)NCC3CCCO3)C2)c1` (stereo not given) it was 5.01 µM [falling, single point]; in that of `Cc1nnc(SCc2ccc(Cl)cc2)n1CC1CCCO1` (stereo not given), 7.94 µM [falling, partial curve].
For `N#Cc1c(-c2ccccc2)cc(C2CC2)nc1N`, the AC50 was 5.01 µM [rising, partial curve].
In the case of `COc1cccc(Cn2c(N)c(C#N)c3nc4ccccc4nc32)c1OC`, the AC50 is 12.6 µM [rising, partial curve].
The result for `COc1ccc(Cl)c(Cn2c(NCCCO)nc3c2c(=O)n(C)c(=O)n3C)c1` reads 25.1 µM [rising, single point].
In the case of `C=C(CC)C(=O)c1ccc(OCC(=O)O)c(Cl)c1Cl`, the AC50 is 12.6 µM [falling, single point] and 15.8 µM [falling, partial curve].
As for `COC(=O)c1cc(OC)c(OC)cc1NC(=O)CCCCCN1C(=O)CCC1=O`, the AC50 is 20 µM [rising, single point].
The result for `Cc1nc2cc(-n3ccc(=O)cc3)ccc2n1-c1ccccc1` reads 3.98 µM [falling, partial curve, poor fit]; that for `Cc1cc2ccccn2c1C(=O)c1ccncc1`, 3.98 µM [falling, single point].
Turning to `CC1CN(c2nc3ccccc3nc2C(C#N)C(=O)OC2CCCCC2)CC(C)O1` (stereo not given), the AC50 is 25.1 µM [rising, single point].
In the case of `COC(=O)CCCCC1SCC(NC(=O)OC)C1NC(=O)OC` (stereo not given) it was 0.398 µM [falling, full curve, poor fit]; in that of `O=C(NCc1ccco1)c1cnn2c(C(F)(F)F)cc(-c3cccs3)nc12`, 7.94 µM [rising, partial curve]; in that of `CNCCNS(=O)(=O)c1cccc2cnccc12`, 15.8 µM [falling, partial curve].
In the case of `c1ccc2c(Nc3ccncc3)nc(-c3ccoc3)nc2c1` it was 15.8 µM [rising, partial curve].
In the case of `O=C(NCCN1CCOCC1)NC1(C(F)(F)F)Oc2ccc(Cl)cc2O1` (stereo not given) it was 10 µM [falling, partial curve]; in that of `NC(=O)C1CCN(CC(=O)c2c[nH]c3ccc(F)cc23)CC1`, 3.16 µM [falling, full curve]; in that of `O=c1ccc2cc3c([nH]c4ccc(Br)cc43)oc-2c1O`, 0.00316 µM [falling, full curve, poor fit].
With `COc1ccc(-n2cnc3c(sc4nccc(N(C)C)c43)c2=O)cc1`, the AC50 was 0.00501 µM [falling, full curve, poor fit].
In the case of `CC(=O)Nc1nc(C)nc(-c2ccccc2OC(C)=O)n1` it was 10 µM [rising, single point]; in that of `Cc1cccc(-n2c(Cc3cc(=O)[nH]c(=O)[nH]3)nnc2SCC(=O)NCc2ccco2)c1`, 0.00398 µM [falling, full curve, poor fit]; in that of `Cc1ccc(C2C3CSCC=C3C(C#N)=C(N)C2(C#N)C#N)cc1` (stereo not given), 12.6 µM [rising, partial curve].
Take `Cc1cc(NC(=O)C2CC(=O)OC2c2ccccc2)no1` (stereo not given): the AC50 was 0.0794 µM [falling, partial curve, poor fit].
In the case of `CCn1c(=O)cc(SCC(=O)Nc2ccccc2N2CCN(C)CC2)c2ccccc21` it was 1.26 µM [rising, partial curve]; in that of `CCOC(=O)c1ccccc1NC(=O)C(C)Oc1ccccc1` (stereo not given), 12.6 µM [rising, partial curve].
In the case of `Clc1ccc(OCc2cn3cccnc3n2)c2ncccc12` it was 3.16 µM [rising, single point]; in that of `COc1ccc(OC)c(N=CC2=C(O)CC(C)(C)CC2=O)c1`, 12.6 µM [rising, partial curve]; in that of `Cc1nc2c(-c3ccc(F)cc3)c(C)nn2c(C)c1CCC(=O)NC(C)CCc1ccco1` (stereo not given), 12.6 µM [falling, single point].
For the compound `O=C(Nc1ccc2nc(-c3ccco3)[nH]c2c1)c1ccco1`, the AC50 was 12.6 µM [rising, partial curve].
In the case of `O=C1NC(Nc2nccs2)(C(F)(F)F)C(=O)N1CCc1ccccc1` (stereo not given) it was 25.1 µM [rising, single point].
In the case of `COc1ccc(Nc2nc(C)cc(C)c2C#N)cc1OC` it was 12.6 µM [rising, partial curve]; in that of `CS(=O)(=O)Nc1cccc(-c2nc(NCCN3CCOCC3)c3ccccc3n2)c1`, 10 µM [rising, partial curve].
In the case of `CCCN(CCC)CCNC(=O)C(NS(=O)(=O)c1ccc2c(c1)CCC(=O)N2)c1ccccc1` (stereo not given) it was 12.6 µM [falling, single point]; in that of `O=C(CN1CCN(c2ccccc2F)CC1)c1ccc2cc[nH]c2c1`, 10 µM [falling, partial curve].
As to `NC(=O)C1=CN([C@@H]2O[C@@H](COP(=O)(O)OP(=O)(O)OC[C@@H]3O[C@H](n4cnc5c(N)ncnc54)[C@@H](OP(=O)(O)O)[C@@H]3O)[C@H](O)[C@@H]2O)C=CC1`, the AC50 was 12.6 µM [falling, single point].
The result for `COc1ccc(-c2nc3ccccc3c(=O)n2CCCN2CCOCC2)cc1` reads 25.1 µM [rising, single point].
The result for `CCOC(=O)c1c(C)c(C(=O)NCc2ccccc2OC)c(C)n1C` reads 12.6 µM [rising, single point]; that for `CCOC(=O)c1sc(N(Cc2ccccc2)C(=O)CN2C(=O)CN(C)C2=O)nc1C`, 10 µM [rising, single point]; that for `CCCn1nc(-c2nnc(-c3ccc(C)c(C)c3)o2)c2ccccc2c1=O`, 5.01 µM [falling, single point].
The result for `O=C(Nc1ccc2c(c1)OCO2)C1CCN(S(=O)(=O)c2cccc3cccnc23)CC1` reads 25.1 µM [falling, single point]; that for `CC1=CCC2C(=O)N(c3cccc(C(=O)N(C)C4CCCCC4)c3)C(=O)C2C1` (stereo not given), 0.501 µM [rising, full curve].
Turning to `COc1ccc(N2CCN(C(=O)c3cc4c(-c5cccc(OC)c5)nn(C)c4s3)CC2)cc1`, the AC50 is 3.98 µM [rising, full curve].
As to `COc1ccc2[nH]c3c(=O)n(Cc4ccco4)cnc3c2c1`, the AC50 is 3.16 µM [rising, full curve].
In the case of `N#C/C(=C1/CCCCCN1)c1nnc2n1CCCCC2`, the AC50 was 0.631 µM [falling, full curve, poor fit].
In the case of `Cc1nn(-c2ccccc2)c2sc(C(=O)OC3CCOC3=O)cc12` (stereo not given), the AC50 was 10 µM [rising, single point].
